Results deposited as PubChem BioAssay AID1224829 (NIAID, 2016).
Shown is one part, drawn at random, of about 3,800 deposited reagents. 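Calls cover raised and lowered translocation; gene median uses one vendor's three siRNAs; qiagen siRNAs acted more weakly than ambion siRNAs.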 The numbers tell different reagents against one gene apart. Reagent sequences are not shown.

Screen: 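Secondary check of hits that alter LPS-induced p65 translocation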 (follow-up of hits)
Cells: mouse RAW264.7 G9 macrophage reporter cells
Reagents: single siRNA against mouse genes, 100 nM
Timing: 2 days of siRNA knock-down, then 40 min of LPS before fixing
Challenge: LPS (Salmonella minnesota R595) at 10 ng/ml
Read-out: 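High-content images after 40 min LPS exposure; GFP-p65 nucleus to surrounding ring signal ratio, normalised to plate median and non-targeting control wells, expressed as z-score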
Scale: p65 translocation z-score and gene median z-score, per vendor: higher = more nuclear NF-kappaB p65 after LPS
Active means: 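Active means the replicate-mean z-score lies beyond plus or minus 2, in either direction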
Calls: active = changed p65 translocation (either direction); inactive = no clear change

Gene | reagent no. | siRNA vendor or control pool | p65 translocation z-score, replicate mean | p65 translocation z-score, replicate 1 | p65 translocation z-score, replicate 2 | gene median z-score, per vendor | outcome
Ttc29 | 1 | ambion single siRNA | -1.63 | -1.24 | -2.02 | -1.65 | inactive
Ttc29 | 2 | ambion single siRNA | -1.67 | -1.68 | -1.65 | -1.65 | inactive
Ttc29 | 3 | ambion single siRNA | -1.63 | -1.63 | – | -1.65 | inactive
Ttc29 | 4 | qiagen single siRNA | 3.68 | 2.02 | 5.33 | 0.846 | active
Ttc29 | 5 | qiagen single siRNA | 0.738 | -0.809 | 2.28 | 0.846 | inactive
Ttc29 | 6 | qiagen single siRNA | -1.87 | -3.41 | -0.331 | 0.846 | inactive
Aplp2 | 1 | ambion single siRNA | -0.0211 | -0.389 | 0.347 | -0.159 | inactive
Aplp2 | 2 | ambion single siRNA | -3.12 | -4.09 | -2.16 | -0.159 | active
Aplp2 | 3 | ambion single siRNA | 0.583 | 1.09 | 0.0721 | -0.159 | inactive
Aplp2 | 4 | qiagen single siRNA | 0.0765 | -0.439 | 0.592 | -1.2 | inactive
Aplp2 | 5 | qiagen single siRNA | -1.34 | -1.2 | -1.49 | -1.2 | inactive
Aplp2 | 6 | qiagen single siRNA | -4.11 | -4.11 | – | -1.2 | active
Hopx | 1 | ambion single siRNA | -0.857 | -1.77 | 0.055 | 0.609 | inactive
Hopx | 2 | ambion single siRNA | 2.41 | 3.5 | 1.33 | 0.609 | active
Hopx | 3 | ambion single siRNA | 0.162 | -0.838 | 1.16 | 0.609 | inactive
Hopx | 4 | qiagen single siRNA | 0.957 | 1.91 | 0.00514 | 0.327 | inactive
Hopx | 5 | qiagen single siRNA | 1.47 | 0.327 | 2.61 | 0.327 | inactive
Hopx | 6 | qiagen single siRNA | -2.12 | -2.12 | – | 0.327 | active

6 entries from above in another layout:
Gene,reagent no.,siRNA vendor or control pool,"p65 translocation z-score, replicate mean","p65 translocation z-score, replicate 1","p65 translocation z-score, replicate 2","gene median z-score, per vendor",outcome
Aplp2,5,qiagen single siRNA,-1.34,-1.2,-1.49,-1.2,inactive
Aplp2,6,qiagen single siRNA,-4.11,-4.11,,-1.2,active
Hopx,1,ambion single siRNA,-0.857,-1.77,0.055,0.609,inactive
Hopx,2,ambion single siRNA,2.41,3.5,1.33,0.609,active
Hopx,3,ambion single siRNA,0.162,-0.838,1.16,0.609,inactive
Hopx,4,qiagen single siRNA,0.957,1.91,0.00514,0.327,inactive

Additional reagents:
Gene | reagent no. | siRNA vendor or control pool | p65 translocation z-score, replicate mean | p65 translocation z-score, replicate 1 | p65 translocation z-score, replicate 2 | gene median z-score, per vendor | outcome
Supt20 | 1 | ambion single siRNA | -2.03 | -0.845 | -3.21 | -3.15 | active
Supt20 | 2 | ambion single siRNA | -1.86 | -0.644 | -3.08 | -3.15 | inactive
Supt20 | 3 | ambion single siRNA | -5.14 | -5.53 | -4.75 | -3.15 | active
Supt20 | 4 | qiagen single siRNA | 1.16 | 0.206 | 2.12 | 0.206 | inactive
Supt20 | 5 | qiagen single siRNA | 0.183 | -2.22 | 2.59 | 0.206 | inactive
Supt20 | 6 | qiagen single siRNA | -2.95 | -2.95 | – | 0.206 | active
Cdc5l | 1 | ambion single siRNA | -4.22 | -3.97 | -4.46 | -2.32 | active
Cdc5l | 2 | ambion single siRNA | 2.52 | 2.52 | – | -2.32 | active
Cdc5l | 3 | ambion single siRNA | -0.986 | -2.32 | 0.344 | -2.32 | inactive
Cdc5l | 4 | qiagen single siRNA | 2.24 | 1.82 | 2.65 | 0.524 | active
Cdc5l | 5 | qiagen single siRNA | 0.524 | -0.253 | 1.3 | 0.524 | inactive
Cdc5l | 6 | qiagen single siRNA | -1.12 | -1.49 | -0.76 | 0.524 | inactive
Or5w15 | 1 | ambion single siRNA | -4.02 | -4.88 | -3.15 | -2.63 | active
Or5w15 | 2 | ambion single siRNA | 0.947 | 0.387 | 1.51 | -2.63 | inactive
Or5w15 | 3 | ambion single siRNA | -2.78 | -3.46 | -2.1 | -2.63 | active
Or5w15 | 4 | qiagen single siRNA | 0.212 | 0.257 | 0.167 | 0.212 | inactive
Or5w15 | 5 | qiagen single siRNA | 0.372 | -0.115 | 0.859 | 0.212 | inactive
Or5w15 | 6 | qiagen single siRNA | 0.709 | 0.124 | 1.29 | 0.212 | inactive
